According to PubChem BioAssay AID504834 (National Center for Advancing Translational Sciences (NCATS), 2011):
The whole screen tested about 320,000 compounds, of which about 22,000 (6.9%) were called active. The inconclusive results got no clear call from the source; some entries with a clear call stand among them for comparison. Calls come from the whole dose curve; as a rule, active = well fitted inhibition curve with a large enough effect; inconclusive = small, poorly fitted or top-dose-only effect, or another doubt; inactive = no such curve, though single readings can be large or run the other way. Potencies of inconclusive entries are doubtful fits and often do not repeat.

Assay: Primary qHTS for delayed death inhibitors of the malarial parasite plastid, 96 hour incubation
Details: P. falciparum luciferase reporter growth; series mostly up to 28.7 µM
Outline: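 Two-generation exposure (96 h) targets delayed-death phenotype. Reporter parasites carrying integrated firefly luciferase, in red cells at 2% hematocrit and 0.05% parasitemia final, kept at 37 C, 5% CO2; luminescence loss indicates inhibition.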
Potency is the fitted concentration of half-maximal effect.

SMILES	Potency
C=CCn1c(=O)/c(=C/c2ccc(O)cc2)s/c1=C(/C#N)c1nnc2n1CCCCC2	inconclusive: 8.28 µM [inhibitor, partial curve]
O=C(Nc1ccc(Oc2cccnc2)cc1)c1ccccc1Cl	inconclusive: 0.828 µM [inhibitor, full curve, poor fit]
CCCCn1c(=O)n(CC(O)c2ccccc2)c(=O)c2c1ncn2C1CCCC1 (centres undefined)	inconclusive: 1.47 µM [inhibitor, partial curve, poor fit]
O=C(NCCc1ccccc1)c1ccc2nc(N3CCOCC3)sc2c1	inconclusive: 13.1 µM [inhibitor, partial curve]
CCOc1ccc(OCC)c(NC(=O)C2CCCN2S(=O)(=O)c2cccc3cccnc23)c1 (centres undefined)	inconclusive: 8.28 µM [inhibitor, partial curve]
O=C(c1ccccc1Cc1ccccc1)N1CCN(S(=O)(=O)c2ccccc2)CC1	inconclusive: 14.7 µM [inhibitor, single point]
COCCn1c(SCC(=O)Nc2cc(C)on2)nc2c(c1=O)SC(C)C2 (centres undefined)	inactive
CCOc1ccccc1N(CC(=O)NCc1ccccc1)C(=O)CCC(=O)Nc1cc(C)ccn1	inactive
COc1ccc(NC(=O)C2CCCN(c3c4c(nc5ncnn35)CCC4)C2)cc1OC (centres undefined)	inactive
Cc1ccc(NC(=O)c2cc(=O)[nH]c3ccc(S(=O)(=O)N4CCOCC4)cc23)cc1	inconclusive: 9.28 µM [inhibitor, single point]
COc1cc2c(cc1OC)C(C)N(CC(=O)Nc1ccc(C)c(S(=O)(=O)N3CCOCC3)c1)CC2 (centres undefined)	inconclusive: 1.65 µM [inhibitor, full curve]
CCOC(=O)C1CCN(c2c(N3CCCC(C(=O)OCC)C3)c(=O)c2=O)CC1 (centres undefined)	inconclusive: 8.28 µM [inhibitor, partial curve, poor fit]
S=C(Nc1ccccc1)NC1CCN(Cc2ccccc2)CC1	inconclusive: 13.1 µM [inhibitor, single point]
CC1CCCCN1CCCNC(=O)C1CCCN(c2ncnc3c2nc2n3CCCCC2)C1 (centres undefined)	inconclusive: 1.04 µM [inhibitor, full curve]
COCc1[nH]nc2c1C(c1ccccc1Cl)C(C#N)=C(N)O2 (centres undefined)	inconclusive: 18.5 µM [inhibitor, single point]
Cc1nnc(SCc2cccc3ccccc23)s1	inactive
Cc1ccc(C(=O)Cn2c(C(=O)/C=C/c3ccccc3)nc3ccccc32)cc1	inactive
COC(=O)c1ccccc1NC(=O)/C=C/c1cc(OC)c(OC)c(OC)c1	inconclusive: 18.5 µM [inhibitor, single point]
N=C1c2ccccc2CN1CC(=O)c1ccccc1	inactive
Cc1ccc(-n2nc(C)c3c2OC(N)=C(C#N)C3c2ccccc2F)cc1 (centres undefined)	inconclusive: 18.5 µM [inhibitor, single point]
COc1ccc(-c2noc(CCC(=O)NCCc3cccc(C)c3)n2)cc1	inactive

SMILES	Potency
O=C(C[n+]1cccc(C(=O)N/N=C/c2ccc(Br)cc2)c1)c1ccccc1	inactive
O=C(CSc1ncccn1)N/N=C/c1ccc2c(c1)OCO2	inactive
Cc1nc(N2CCN(S(=O)(=O)c3ccccc3C#N)CC2)c2c(-c3ccccc3)csc2n1	inconclusive: 10.4 µM [inhibitor, partial curve, poor fit]
c1cc(CNc2ccc(N3CCOCC3)cc2)ccn1	inconclusive: 18.5 µM [inhibitor, single point]
CCOC(=O)CSc1ncnc2c1cnn2-c1ccc(C)cc1	active: 13.1 µM
CC1=C(C(=O)OCC2CCCO2)C(c2coc3ccc(Cl)cc3c2=O)C2=C(CCCC2=O)N1 (centres undefined)	inconclusive: 1.04 µM [inhibitor, partial curve, poor fit]
C[N+]1=C2CCCCCN2C(O)(c2ccccc2)C1 (centres undefined)	active: 8.28 µM
COc1ccccc1CC(=O)Nc1ccc2c(c1)C(=O)NC2=O	inconclusive: 10.4 µM [inhibitor, single point]
CNC(=S)Nc1cc(C)ccc1OC(F)F	inconclusive: 18.5 µM [inhibitor, single point]
CC(C)C12CN3CC(C(C)C)(CN(C1)C31C(=O)Nc3ccccc31)C2=O (centres undefined)	inconclusive: 13.1 µM [inhibitor, single point]
O=C(c1cc(-c2cccnc2)nc2ccccc12)N1CCCc2ccccc21	active: 10.4 µM
O=C(CSc1ncnc2c1nnn2-c1ccc(F)cc1)NCc1ccco1	inconclusive: 18.5 µM [inhibitor, single point]
COc1ccc(S(=O)(=O)N2CCOCC2)cc1NC(=O)c1ccc(OCC(C)C)c(OC)c1	inconclusive: 10.4 µM [inhibitor, single point]
Cc1ccccc1Nc1ccc(S(=O)(=O)N2CCOCC2)cc1[N+](=O)[O-]	inactive
COc1ccc(CCNC(=O)c2ccc3c(c2)S(=O)(=O)N=C2CCCCCN23)cc1	inconclusive: 18.5 µM [inhibitor, partial curve, poor fit]
Cc1c(F)cccc1NS(=O)(=O)c1ccc2c(c1)c(=O)n(C)c(=O)n2C	inconclusive: 10.4 µM [inhibitor, single point]
Cc1nc2nc(NC(=O)c3ccco3)nn2c(C)c1Cl	inactive
CCc1cc(C(c2ccccn2)N2CCN(C)CC2)c(NC(=O)c2ccccc2)s1 (centres undefined)	inconclusive: 16.5 µM [inhibitor, single point]
Cc1nn(CC(=O)Nc2ccc(Br)cc2F)c(=O)c2cccn12	inconclusive: 10.4 µM [inhibitor, single point]
COc1ccc(NC(=O)CN2CCC3(O)CCCCC3C2c2cc(OC)ccc2OC)cc1 (centres undefined)	inconclusive: 11.7 µM [inhibitor, single point]
CCC(NC(=O)CCc1c(C)c2cc3c4c(oc3cc2oc1=O)CCCC4)C(=O)O (centres undefined)	inactive
COc1cccc(C2=NOC(C(=O)N3CCc4ccccc4C3)C2)c1 (centres undefined)	inconclusive: 9.28 µM [inhibitor, single point]

Quoted at random: 2 entries already listed, in no set order.
SMILES	Potency
Cc1nc(N2CCN(S(=O)(=O)c3ccccc3C#N)CC2)c2c(-c3ccccc3)csc2n1	inconclusive: 10.4 µM [inhibitor, partial curve, poor fit]
CC1CCCCN1CCCNC(=O)C1CCCN(c2ncnc3c2nc2n3CCCCC2)C1 (centres undefined)	inconclusive: 1.04 µM [inhibitor, full curve]
